Results are given in words; binding and its absence hold for the method and conditions named. Binding seen in cells or lysates may run through a third protein.
B1: p72 (protein)
chain: MSLKMDNRDVAGKANRWFGVAPPKSGKMNMNILHQEELIAQKKREIEAKMEQKAKQNQVASPQPPHPGEITNAHNSSCISNKFANDGSFLQQFLKLQKAQTSTDAPTSAPSAPPSTPTPSAGKRSLLISRRTGLGLASLPGPVKSYSHAKQLPVAHRPSVFQSPDEDEEEDYEQWLEIKVSPPEGAETRKVIEKLARFVAEGGPELEKVAMEDYKDNPAFAFLHDKNSREFLYYRKKVAEIRKEAQKSQAASQKVSPPEDEEVKNLAEKLARFIADGGPEVETIALQNNRENQAFSFLYEPNSQGYKYYRQKLEEFRKAKASSTGSFTAPDPGLKRKSPPEALSGSLPPATTCPASSTPAPTIIPAPAAPGKPASAATVKRKRKSRWGPEEDKVELLPAELVQRDVDASPSPLSVQDLKGLGYEKGKPVGLVGVTELSDAQKKQLKEQQEMQQMYDMIMQHKRAMQDMQLLWEKAVQQHQHGYDSDEEVDSELGTWEHQLRRMEMDKTREWAEQLTKMGRGKHFIGDFLPPDELEKFMETFKALKEGREPDYSEYKEFKLTVENIGYQMLMKMGWKEGEGLGSEGQGIKNPVNKGTTTVDGAGFGIDRPAELSKEDDEYEAFRKRMMLAYRFRPNPLNNPRRPYY
B2: 68 kDa fragment of p72 (protein)
chain: MSLKMDNRDVAGKANRWFGVAPPKSGKMNMNILHQEELIAQKKREIEAKMEQKAKQNQVASPQPPHPGEITNAHNSSCISNKFANDGSFLQQFLKLQKAQTSTDAPTSAPSAPPSTPTPSAGKRSLLISRRTGLGLASLPGPVKSYSHAKQLPVAHRPSVFQSPDEDEEEDYEQWLEIKVSPPEGAETRKVIEKLARFVAEGGPELEKVAMEDYKDNPAFAFLHDKNSREFLYYRKKVAEIRKEAQKSQAASQKVSPPEDEEVKNLAEKLARFIADGGPEVETIALQNNRENQAFSFLYEPNSQGYKYYRQKLEEFRKAKASSTGSFTAPDPGLKRKSPPEALSGSLPPATTCPASSTPAPTIIPAPAAPGKPASAATVKRKRKSRWGPEEDKVELLPAELVQRDVDASPSPLSVQDLKGLGYEKGKPVGLVGVTELSDAQKKQLKEQQEMQQMYDMIMQHKRAMQDMQLLWEKAVQQHQHGYDSDEEVDSELGTWEHQLRRMEMDKTREWAEQLTKMGRGKHFIGDFLPPDELEKFMETFKALKEGREPDYSEYKEFKLTVENIGYQMLMKMGWKEGEGLGSEGQGIKNPVNKGTTTVD

Target: active caspase-8 (human)
Experiment: co-immunoprecipitation with mAb 179 from BJAB lysates, time course of Fas-ligand stimulation, Silver staining

Row | Binder | binding
1 | B1 | no binding
2 | B2 | no binding

From patent publication US20080311599A1
